Experimental data as given in paper PMC11452662, “Biofunctionalized dissolvable hydrogel microbeads enable efficient characterization of native protein complexes” (Nature Communications, 2024).
No constants are given. Whether binding was seen depends on the method and setting. For some assays here: In cells and extracts the contact can be indirect. Some results given as binding are weak or reduced against the parent protein; the word gives no strength. For some assays here: Sequences can lack the tags named with a protein.

B1: Thermoplasma acidophilum 20S proteasome α subunit, unmodified (natural protein, UniProt P25156 1-233, looked up)
chain: MQQGQMAYDRAITVFSPDGRLFQVEYAREAVKKGSTALGMKFANGVLLISDKKVRSRLIEQNSIEKIQLIDDYVAAVTSGLVADARVLVDFARISAQQEKVTYGSLVNIENLVKRVADQMQQYTQYGGVRPYGVSLIFAGIDQIGPRLFDCDPAGTINEYKATAIGSGKDAVVSFLEREYKENLPEKEAVTLGIKALKSSLEEGEELKAPEIASITVGNKYRIYDQEEVKKFL
notes: 20S proteasome α subunit of Thermoplasma acidophilum; The results call this α subunit unmodified; the methods say that the constructs were tagged at the C-termini with either a Twin-Strep-tag or a His tag
B2: Thermoplasma acidophilum 20S proteasome β subunit with Twin-Strep-tag (protein, UniProt P28061 9-211)
chain: TTTVGITLKDAVIMATERRVTMENFIMHKNGKKLFQIDTYTGMTIAGLVGDAQVLVRYMKAELELYRLQRRVNMPIEAVATLLSNMLNQVKYMPYMVQLLVGGIDTAPHVFSIDAAGGSVEDIYASTGSGSPFVYGVLESQYSEKMTVDEGVDLVIRAISAAKQRDSASGGMIDVAVITRKDGYVQLPTDQIESRIRKLGLIL

Legend:
[1] = molecular target: Thermoplasma acidophilum 20S proteasome α subunit expressed alone (Thermoplasma acidophilum) (UniProt P25156); assay: native MS; proteins expressed from a single plasmid that codes only for the α subunit
[2] = molecular target: T1, Thermoplasma acidophilum 20S proteasome β subunit with Twin-Strep-tag (Thermoplasma acidophilum) (UniProt P28061); assay: pull-down; α and Twin-Strep-tagged β expressed from two separate plasmids in E. coli; capture from lysate with Strep-Tactin SNAP beads; SDS-PAGE and Western blot with anti-Strep Ab
T1 sequence: B2 chain

[3] = molecular target: T1, Thermoplasma acidophilum 20S proteasome β subunit with Twin-Strep-tag (Thermoplasma acidophilum); assay: cryo-EM structure; 20S captured with SNAP beads, dissolving product put on the grid without removal of the polymers; 120 micrographs, D7 symmetry, 3.16 Å
[4] = molecular target: Thermoplasma acidophilum 20S proteasome α subunit, unmodified (Thermoplasma acidophilum) (UniProt P25156); assay: as above

| Molecule | binding [1] | binding [2] | binding [3] | binding [4] |
| --- | --- | --- | --- | --- |
| Thermoplasma acidophilum 20S proteasome α subunit expressed alone (from UniProt P25156 1-233) | binds |  |  |  |
| B1 |  | binds | binds | binds |
| B2 |  |  | binds |  |
